End groups of sequences in plain letters are not given here.
Assay: peptide made by a vendor
Conditions: whole synthesis

CSNRDARRC (Bladder Tumor-Targeting Peptide 1)
purity (crude or final not stated): 85% or higher

From patent publication US7745410B2 (Kyungpook National University Industry-Academica …, priority 2006, dated 2010)
